# Results from publication PMC3765969.
# Protein sequences, listed by entry. Tags and fused reporters are not part of them.
# UniProt P12004: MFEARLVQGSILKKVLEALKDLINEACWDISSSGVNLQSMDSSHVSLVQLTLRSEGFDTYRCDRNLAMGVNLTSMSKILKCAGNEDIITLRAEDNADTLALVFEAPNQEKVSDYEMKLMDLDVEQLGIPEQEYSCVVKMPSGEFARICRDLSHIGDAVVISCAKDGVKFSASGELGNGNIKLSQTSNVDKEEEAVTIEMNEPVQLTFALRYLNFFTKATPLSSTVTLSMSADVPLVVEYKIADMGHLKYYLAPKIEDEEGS
# UniProt Q13547: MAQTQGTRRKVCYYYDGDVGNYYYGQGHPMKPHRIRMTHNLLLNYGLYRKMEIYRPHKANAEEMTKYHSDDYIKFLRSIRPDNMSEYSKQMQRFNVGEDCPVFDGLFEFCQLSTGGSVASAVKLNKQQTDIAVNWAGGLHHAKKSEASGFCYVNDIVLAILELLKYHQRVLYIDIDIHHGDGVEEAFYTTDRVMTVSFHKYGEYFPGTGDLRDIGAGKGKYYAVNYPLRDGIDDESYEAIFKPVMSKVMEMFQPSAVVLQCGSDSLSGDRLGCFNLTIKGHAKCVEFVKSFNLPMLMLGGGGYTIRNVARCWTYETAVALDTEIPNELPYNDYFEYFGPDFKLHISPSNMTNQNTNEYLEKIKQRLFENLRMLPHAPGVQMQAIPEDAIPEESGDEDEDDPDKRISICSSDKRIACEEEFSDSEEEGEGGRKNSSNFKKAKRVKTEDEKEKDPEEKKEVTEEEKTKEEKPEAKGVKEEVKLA
# UniProt Q92769: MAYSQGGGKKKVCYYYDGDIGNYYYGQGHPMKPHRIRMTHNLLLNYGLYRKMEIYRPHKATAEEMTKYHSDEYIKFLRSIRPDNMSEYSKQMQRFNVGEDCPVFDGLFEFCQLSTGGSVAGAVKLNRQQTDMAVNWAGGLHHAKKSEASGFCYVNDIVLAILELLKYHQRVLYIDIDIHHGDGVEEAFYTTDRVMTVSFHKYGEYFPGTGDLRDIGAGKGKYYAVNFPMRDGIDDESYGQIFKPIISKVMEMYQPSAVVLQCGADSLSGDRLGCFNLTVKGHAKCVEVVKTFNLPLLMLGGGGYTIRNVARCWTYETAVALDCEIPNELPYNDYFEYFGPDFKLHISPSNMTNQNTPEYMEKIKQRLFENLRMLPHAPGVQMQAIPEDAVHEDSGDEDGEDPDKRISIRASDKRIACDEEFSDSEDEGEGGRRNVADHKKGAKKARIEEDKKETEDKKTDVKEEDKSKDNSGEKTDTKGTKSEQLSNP
# Results are given in words; binding and its absence hold for the method and conditions named. In cells and extracts the contact can be indirect. Some binding calls cover weakened binding; strength is not graded here.
# Molecular target: proliferating cell nuclear antigen (human (endogenous in HeLa)) (UniProt P12004)
# Test: co-IP; HeLa nuclear extract in RIPA buffer with protease inhibitors, precleared with Protein A-agarose; anti-PCNA antibody 12 h at 4°C (IgG as negative control), Protein A-agarose 1 h at 4°C, three washes with RIPA buffer; western blot for Hdac1 and Hdac2
row,binding,Substance
1,binds,histone deacetylase 1 (from UniProt Q13547 1-482) (enzyme)
2,binds,histone deacetylase 2 (from UniProt Q92769 1-488) (enzyme)
